Screen size: about 290,000 compounds; about 570 (0.2%) were called active. The shares of active, inactive and inconclusive entries below differ from those in the screen. Rule as the data show it: active = inhibition mostly above about 51% (no sharp cut-off); inconclusive = no clear call, values can overlap the other calls; inactive = mostly below about 53%.
The compounds below were run against Voltage-dependent N-type calcium channel subunit alpha-1B (Homo sapiens) (UniProt Q00975) (assay: disruptors of CaV2.2 binding to Mint1 – biochemical, HTRF (AID 2073)). Conditions: HTRF protein-protein interaction, Mint1-CaV2.2; at 20 µM; stronger effect = higher value.

Sequences of proteins named here, by UniProt entry; tags and fusion partners are left off.
UniProt Q00975, whole entry, looked up: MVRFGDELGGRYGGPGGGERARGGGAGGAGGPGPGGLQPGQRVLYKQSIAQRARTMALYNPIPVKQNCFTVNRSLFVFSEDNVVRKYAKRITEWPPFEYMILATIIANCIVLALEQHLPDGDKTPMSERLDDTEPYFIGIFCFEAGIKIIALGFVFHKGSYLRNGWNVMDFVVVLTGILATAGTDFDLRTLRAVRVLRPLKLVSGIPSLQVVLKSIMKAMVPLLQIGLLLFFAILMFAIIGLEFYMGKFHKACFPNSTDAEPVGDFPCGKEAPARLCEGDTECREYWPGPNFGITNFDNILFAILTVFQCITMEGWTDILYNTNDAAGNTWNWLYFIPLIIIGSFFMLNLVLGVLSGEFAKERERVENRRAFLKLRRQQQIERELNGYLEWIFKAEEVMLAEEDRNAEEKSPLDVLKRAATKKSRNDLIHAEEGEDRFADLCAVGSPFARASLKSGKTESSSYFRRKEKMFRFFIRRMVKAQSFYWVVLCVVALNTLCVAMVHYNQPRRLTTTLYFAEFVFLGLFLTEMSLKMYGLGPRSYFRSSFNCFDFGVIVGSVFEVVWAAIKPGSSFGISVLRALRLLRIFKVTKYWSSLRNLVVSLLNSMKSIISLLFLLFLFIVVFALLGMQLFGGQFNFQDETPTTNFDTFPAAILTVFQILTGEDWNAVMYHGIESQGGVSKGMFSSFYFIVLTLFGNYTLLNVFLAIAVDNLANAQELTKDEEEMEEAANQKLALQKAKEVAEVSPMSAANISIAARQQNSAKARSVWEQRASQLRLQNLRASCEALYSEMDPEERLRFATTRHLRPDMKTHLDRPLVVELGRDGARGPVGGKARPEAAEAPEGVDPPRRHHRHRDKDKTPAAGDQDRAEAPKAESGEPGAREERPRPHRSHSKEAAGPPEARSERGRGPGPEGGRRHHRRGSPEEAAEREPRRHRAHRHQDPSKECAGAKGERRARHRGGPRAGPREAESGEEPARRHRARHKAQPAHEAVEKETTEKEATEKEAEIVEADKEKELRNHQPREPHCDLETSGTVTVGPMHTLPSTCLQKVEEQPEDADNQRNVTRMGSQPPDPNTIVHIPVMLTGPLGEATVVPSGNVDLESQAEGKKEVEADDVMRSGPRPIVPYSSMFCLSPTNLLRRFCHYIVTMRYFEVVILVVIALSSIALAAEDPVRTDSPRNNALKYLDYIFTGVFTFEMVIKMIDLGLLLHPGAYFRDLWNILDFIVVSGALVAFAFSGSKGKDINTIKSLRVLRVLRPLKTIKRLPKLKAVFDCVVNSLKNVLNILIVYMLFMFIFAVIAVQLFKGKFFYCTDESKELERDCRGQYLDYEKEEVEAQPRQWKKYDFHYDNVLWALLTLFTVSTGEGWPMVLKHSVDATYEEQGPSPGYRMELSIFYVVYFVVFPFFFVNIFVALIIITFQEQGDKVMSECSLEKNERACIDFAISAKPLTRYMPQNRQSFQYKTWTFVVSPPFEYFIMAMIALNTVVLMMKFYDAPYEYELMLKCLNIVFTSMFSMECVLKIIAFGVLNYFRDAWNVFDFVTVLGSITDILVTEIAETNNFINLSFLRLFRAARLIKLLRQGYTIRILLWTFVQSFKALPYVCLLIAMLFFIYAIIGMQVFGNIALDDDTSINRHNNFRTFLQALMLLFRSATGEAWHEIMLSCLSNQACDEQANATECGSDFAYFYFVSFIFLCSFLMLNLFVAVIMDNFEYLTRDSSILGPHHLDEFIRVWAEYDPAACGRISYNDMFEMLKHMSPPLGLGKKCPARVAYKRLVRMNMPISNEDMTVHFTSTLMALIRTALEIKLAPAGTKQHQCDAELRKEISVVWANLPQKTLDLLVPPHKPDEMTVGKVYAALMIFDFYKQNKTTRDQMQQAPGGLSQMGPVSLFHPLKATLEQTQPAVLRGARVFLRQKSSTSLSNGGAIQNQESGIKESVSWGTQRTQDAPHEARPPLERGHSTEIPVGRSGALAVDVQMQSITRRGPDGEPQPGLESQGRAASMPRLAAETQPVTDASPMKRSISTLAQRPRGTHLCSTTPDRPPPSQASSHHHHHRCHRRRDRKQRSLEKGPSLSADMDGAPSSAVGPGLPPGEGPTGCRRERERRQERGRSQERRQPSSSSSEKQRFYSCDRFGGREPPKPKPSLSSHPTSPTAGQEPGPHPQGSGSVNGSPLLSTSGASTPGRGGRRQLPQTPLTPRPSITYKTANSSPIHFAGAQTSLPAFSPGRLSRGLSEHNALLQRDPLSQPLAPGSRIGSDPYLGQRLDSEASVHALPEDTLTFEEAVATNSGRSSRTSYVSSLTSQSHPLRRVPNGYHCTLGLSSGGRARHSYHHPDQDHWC

| SMILES | inhibition |
| --- | --- |
| CS(=O)(=O)N(Cc1ccccc1)c1ccc(C(=O)Nc2ccccc2Sc2ccccc2)cc1 | inconclusive: 50.9% |
| CC(=O)Nc1c(-c2ccccc2)c2cc(Br)ccc2[nH]c1=O | inconclusive: 82.5% |
| Cc1cc(NC(=O)CSc2ncnc3sc4c(c23)CCC(C)C4)no1 (stereo not given) | inconclusive: 71.9% |
| COc1ccc(N2Cc3ccc(C(=O)N/N=C\c4ccc(O)cc4O)cc3C2)cc1 | inactive: 68.9% |
| CCCSc1nnc2nc3c(nn12)c1ccccc1n3C | inconclusive: 64.2% |
| Cc1cc(C)cc(Nc2nc(-c3ccc(S(=O)(=O)N4CCCC4)cc3)cs2)c1 | active: 67.2% |
| O=C(N/N=C/c1ccc([N+](=O)[O-])o1)c1cn(-c2ccccc2)nc1-c1ccccc1 | inactive: 60.4% |
| Cc1nc2ccc(Br)cc2c(-c2ccccc2)c1C(=O)O | inconclusive: 50.6% |
| CCOc1ccc(S(=O)(=O)NCCN2CCOCC2)c2ccccc12 | inconclusive: 71.6% |
| CCC(C(=O)O/N=C(\N)c1ccccc1)c1ccccc1 (stereo not given) | inconclusive: 53.5% |
| COC(=O)c1cc(OC)cc(O)c1C(=O)c1c(O)cc(C)cc1O | inconclusive: 57.4% |
| COc1cc(CN2CCCC(C(=O)c3ccc4c5c(cccc35)CC4)C2)cc(OC)c1O (stereo not given) | inconclusive: 61.5% |
| CCc1ccc(NC(=O)CN(N=Nc2nonc2C)c2nonc2C)cc1 | inconclusive: 89.2% |
| COc1ccc(Br)cc1/C=C1\Oc2ccccc2NC1=O | inconclusive: 57.6% |
| CCCn1c(N2CCN(S(=O)(=O)Cc3ccccc3)CC2)nc2ccccc21 | inconclusive: 52.5% |
| COc1ccccc1C(=O)C1CCCN(C(=O)C2CCCC2)C1 (stereo not given) | inconclusive: 71.1% |
| CC[C@@H](C)[C@H](NC(=O)C1CCN(C(=O)[C@@H](NS(=O)(=O)c2ccc(C)cc2)C(C)C)CC1)C(=O)O | inconclusive: 52.1% |
| COc1ccc(NC(=O)CSc2nnc(-c3ccccc3)n2Cc2ccco2)c(OC)c1 | inconclusive: 54% |
| Cc1ccc2c(c1)C(=O)CCCCC(=O)N2 | inconclusive: 72.9% |
| O=c1cc(/N=C/c2coc3c(ccc4ccccc43)c2=O)[nH]c(=S)[nH]1 | active: 52.9% |
| CN(C(=O)c1ccncc1)C1CC(C)(C)N(O)C(C)(C)C1 | inconclusive: 55.7% |
| N#Cc1c(C(F)(F)F)cc(C2CC2)[nH]c1=O | inactive: 6.1% |
| CC1CN=C(Nc2cccc(S(=O)(=O)N(C)C)c2)S1 (stereo not given) | inactive: -0.9% |

| SMILES | inhibition |
| --- | --- |
| Cc1cc(C(=O)Nc2cc(C)n(Cc3ccc(Cl)cc3)n2)no1 | inconclusive: 88.8% |
| COc1ccc(N2C(=O)N(Cc3ccccc3F)c3ccccc3S2(=O)=O)cc1 | inactive: -1.5% |
| CCOc1c(C)cnc2c1c(=O)n(Cc1ccccc1F)c(=O)n2C | inconclusive: 64.6% |
| COc1ccccc1-c1nc(SCC(=O)Nc2ccccc2)n[nH]1 | inconclusive: 56% |
| O=C(Cn1cnc2ccccc2c1=O)NCCC(=O)Nc1ccc2c(c1)OCCO2 | inconclusive: 56.3% |
| CCOc1cc(C(=O)O)cc(Cl)c1OC | inactive: 0.7% |
| CCCc1nn(-c2cc(Cl)ccc2OC)c2c1C(=O)CC(C)(C)C2 | inconclusive: 67.9% |
| CCCn1cnc2cc(NC(=O)c3ccco3)ccc21 | inactive: 10.4% |
| Cc1ccc(OCC(=O)NNC(=O)c2cc3ccccc3o2)cc1C | inconclusive: 67% |
| CSc1nc(N(CCO)CCO)c2sc3nc(-c4ccco4)c4c(c3c2n1)CCC4 | active: 72.4% |
| O=C1c2c([N+](=O)[O-])cc([N+](=O)[O-])cc2S(=O)N1Cc1ccccc1 (stereo not given) | inconclusive: 80.3% |
| N#Cc1c(N)sc(=S)c2c1CCN(Cc1ccccc1)C2 | active: 52.4% |
| CNc1nc(-c2ccccc2)nc(-c2ccc(OC)cc2)c1C#N | inconclusive: 50% |
| COc1ccccc1/C=C/CN1CCCCC1 | inconclusive: 50.3% |
| CN(CC(=O)NC1CC(C)(C)NC(C)(C)C1)S(=O)(=O)c1ccc(Br)cc1 | inconclusive: 64.1% |
| O=C(NCc1ccccc1)Nc1cccn(Cc2ccccc2Cl)c1=O | inconclusive: 52.1% |
| Cc1cc(C)c(NC(=O)COC(=O)C2CCC2)c(Cl)c1 | inconclusive: 72% |
| COc1ccc(CNC(=O)COc2cc(=O)n(C)c3ccccc23)cc1 | inactive: 13.2% |
| Cc1ccc(NC(=S)N2CCn3cccc3C2c2cccnc2)cc1 (stereo not given) | inconclusive: 55.2% |
| Cc1sc(NC(=O)/C=C/c2ccco2)c(C(=O)OC(C)C)c1C | inconclusive: 66.6% |
| COc1cccc2c1C(=O)C=C(C)C2=O | inactive: -19.2% |
| O=C(COC(=O)c1cccnc1Nc1ccccc1F)NCc1ccc2c(c1)OCO2 | inconclusive: 76.4% |
| COc1ccccc1CN=C1Nc2ccccc2CS1 | inconclusive: 62.7% |

| SMILES | inhibition |
| --- | --- |
| C/C(=N\NC(=O)CN(c1ccc(Oc2ccccc2)cc1)S(C)(=O)=O)C(C)(C)C | inconclusive: 50.1% |
| CC1CC(=O)N(CC(=O)Nc2cccc(Cl)c2)c2ccccc2S1(=O)=O (stereo not given) | inconclusive: 96.4% |
| O=c1oc(-c2ccc(Br)o2)nc2ccccc12 | inconclusive: 53.2% |
| CCOC(=O)c1cnc2ccc(Br)cc2c1NCCCN1CCOCC1 | inconclusive: 73.1% |
| CCn1c(=O)c(=O)[nH]c2cc(C(=O)Nc3ccc(S(=O)(=O)N4CCCC4)cc3)ccc21 | inactive: 19.2% |
| CCOC(=O)c1cnc(-n2nc(C)cc2C)nc1NNc1cc(-c2ccccc2)nc(C)n1 | inconclusive: 68.2% |
| CCC(NC(=O)OC(C)(C)C)C(=O)Oc1ccc2c3c(c(=O)oc2c1)CCC3 (stereo not given) | inconclusive: 85% |
| CCCn1c(SCC(=O)N2c3ccc(F)cc3CCC2C)nnc1-c1ccccn1 (stereo not given) | inactive: 7% |
| Cc1ccc2cc(C#N)c(N3CCCN(S(=O)(=O)c4ccccc4)CC3)nc2c1 | inconclusive: 57.3% |
| Cc1ccc(NC(=O)CSCC(N)=O)cc1C | inconclusive: 64.3% |
| COc1ccc(CN=Cc2c(O)[nH]c3ccccc23)cc1 | inconclusive: 57.2% |
| COc1ccc2cc(C(c3nnnn3C(C)(C)C)N3CCc4ccccc4C3)c(=O)[nH]c2c1 (stereo not given) | inactive: 33% |
| CC(NS(=O)(=O)c1ccccc1)c1n[nH]c(=S)n1-c1ccccc1 (stereo not given) | inconclusive: 82.9% |
| Cn1nc(-c2ccccc2)cc1NC(=O)Nc1ccc(F)cc1 | inactive: -0.7% |
| CN(C(=O)c1ccc(Cl)cc1)C1=CCCCC1CCC#N (stereo not given) | inconclusive: 90.1% |
| CCOc1ccc(-c2nc(N)ncc2-c2ccc(OC)cc2)c(O)c1 | inconclusive: 62.3% |
| Cc1cc(-c2csc(NC(=O)c3ccc(C#N)cc3)n2)c(C)n1Cc1ccccc1 | inactive: 31.3% |
| COc1ccc(NC(=O)c2cc(-c3cccs3)on2)cc1OC | inconclusive: 52.4% |
| C=CCN1c2ccccc2[C@]23C[C@@H](C(=O)OC)N(C(=O)NCCC)C2=NC(C(=O)OC)=C(C(=O)OC)[C@H]13 | inconclusive: 88.4% |
| Cc1csc(NC(=O)CCCC(=O)O)c1-c1nc2ccccc2s1 | inconclusive: 50% |
| Cc1nc2c(C)cccc2c2c1CCN2c1ccccc1F | inconclusive: 51.8% |
| CCOc1ccc(NC(=O)CSc2ccc(-c3ccco3)nn2)cc1 | inconclusive: 56.3% |
| COc1ccc(COCC(O)CN2CCC(CN3C(=O)c4cccc5cccc(c45)C3=O)CC2)cc1OC (stereo not given) | inconclusive: 69.8% |

Random excerpt: 5 compounds from above

| SMILES | inhibition |
| --- | --- |
| CN(C(=O)c1ccncc1)C1CC(C)(C)N(O)C(C)(C)C1 | inconclusive: 55.7% |
| COc1ccc(NC(=O)c2cc(-c3cccs3)on2)cc1OC | inconclusive: 52.4% |
| COc1cccc2c1C(=O)C=C(C)C2=O | inactive: -19.2% |
| N#Cc1c(N)sc(=S)c2c1CCN(Cc1ccccc1)C2 | active: 52.4% |
| CCC(NC(=O)OC(C)(C)C)C(=O)Oc1ccc2c3c(c(=O)oc2c1)CCC3 (stereo not given) | inconclusive: 85% |

Two entries from above, bar-delimited.
SMILES | inhibition
CCCn1c(SCC(=O)N2c3ccc(F)cc3CCC2C)nnc1-c1ccccn1 (stereo not given) | inactive: 7%
Cc1ccc2cc(C#N)c(N3CCCN(S(=O)(=O)c4ccccc4)CC3)nc2c1 | inconclusive: 57.3%

(more compounds)

| SMILES | inhibition |
| --- | --- |
| Nc1ccc2nc(-c3cccs3)[nH]c2c1 | inconclusive: 63.5% |
| C#CCn1c(=NC(=O)c2sc3ccccc3c2Cl)sc2cc(S(N)(=O)=O)ccc21 | inconclusive: 59.9% |
| COc1ccc(-c2cc3c(=O)n(CC(=O)Nc4cccc(Cl)c4)ncn3n2)cc1 | inactive: 39.6% |
| COC(=O)c1nn(-c2ccc3c(c2)CCN3C(C)=O)cc1O | inconclusive: 53.7% |
| O=c1oc2ccccc2cc1-c1nnc(NCc2ccco2)s1 | inconclusive: 51.1% |
| COc1ccc(C(=O)N2CCC(n3c(C)nc4cc(F)ccc43)CC2)cc1OC | inconclusive: 79.7% |
| CN(C)c1ccc(-c2nc3cc(N)ccc3o2)cc1 | inconclusive: 61.1% |
| COc1cc(/C=N/NC(=O)c2cc(C)oc2C)ccc1O | inconclusive: 63.4% |
| CCCCOC(=O)Nc1nnc(CC)s1 | inactive: 3.8% |
| COc1ccc(OC)c(-c2nc(C(N)=O)c3[nH]c(=O)n(-c4ccc(F)cc4)c3n2)c1 | inconclusive: 64.4% |
| Nc1ccc2oc(-c3ccc4nc[nH]c4c3)nc2c1 | inconclusive: 65.8% |
| CN1CCN(S(=O)(=O)c2cccc(C(=O)NCc3ccccc3Cl)c2)CC1 | inconclusive: 58.5% |
| Cc1c(C(=O)Nc2ccc(S(=O)(=O)Nc3ncccn3)cc2)oc2ccc(F)cc12 | inconclusive: 71.3% |
| COC(=O)CSc1nc(NC(C)C)nc(N2CCOCC2)n1 | inconclusive: 55% |
| CCN1C(C#N)=C(C#N)N=C(C)CC1(C)C | inconclusive: 65.2% |
| Cc1cc(C)nc(N2CCC(C(=O)NCc3cccc(C(F)(F)F)c3)CC2)n1 | inconclusive: 75.5% |
| O=C(/C=C/c1ccc(F)cc1)NC(=S)Nc1ccccc1 | inconclusive: 67.8% |
| C=CCSc1nc(N)c(C(=O)Nc2ccccc2OC)cc1C(=O)Nc1ccccc1 | inconclusive: 56.6% |
| Cc1ccc(COc2ccc(/C=N/NC(=O)c3nnn(-c4nonc4N)c3COc3ccc(F)cc3)cc2)cc1 | inconclusive: 91.5% |
| Cc1onc(-c2ccccc2Cl)c1C(=O)N1CCN(C/C=C/c2ccccc2)CC1 | inconclusive: 59.7% |
| Nn1cnnc1N/N=C\c1ccc(-c2ccccc2[N+](=O)[O-])o1 | active: 62% |
